{"source": "PubChem BioAssay AID1508597 (Cure First, 2020)", "purpose": "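Survival screen with siRNA in ovarian cancer cells derived from patients, with or without rucaparib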 (primary screen)", "system": "human ovarian carcinoma lines grown from tumours: OCI-P5x (papillary serous) and OCI-C5x (clear cell)", "reagent": "siRNA pool against human genes, 1.25 pmol siRNA per well", "timing": "72 h or 96 h, depending on the cell culture", "conditions": "rucaparib 20 µM (about IC30) or vehicle, present until read-out", "rucaparib or vehicle": "Rucaparib", "cell line": "OCI-C5x (clear cell)", "measurement": "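Luminescent ATP-based viability assay read 72 or 96 h after transfection, depending on culture, given as normalised percent viability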", "direction": "viability, normalised: higher = more viable cells remaining", "hit rule": "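a well counts as a hit if its normalised viability is under 80 percent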", "calls": "active = viability under 80%; inactive = viability 80% or more", "note": "Shown is an unselected part of the about 2,100 reagents, in one setting of the screen. 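Calls flag viability under 80% in either arm, not effects specific to rucaparib; the reference for percent is not stated.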 A number with no mark means an inactive call. A reagent listed more than once was tested more than once; the source does not tell the runs apart. Not given: the 100% reference."}
{"Gene":"SETMAR (SET and mariner transposase domain methyltransferase)","technical replicate":"1","viability, normalised (%)":"69.8 (active)"}
{"Gene":"SETMAR (SET and mariner transposase domain methyltransferase)","technical replicate":"1","viability, normalised (%)":"40.4 (active)"}
{"Gene":"SETMAR (SET and mariner transposase domain methyltransferase)","technical replicate":"2","viability, normalised (%)":"40.4 (active)"}
{"Gene":"SETMAR (SET and mariner transposase domain methyltransferase)","technical replicate":"2","viability, normalised (%)":"71 (active)"}
{"Gene":"SETMAR (SET and mariner transposase domain methyltransferase)","technical replicate":"3","viability, normalised (%)":"72.7 (active)"}
{"Gene":"SETMAR (SET and mariner transposase domain methyltransferase)","technical replicate":"3","viability, normalised (%)":"33.9 (active)"}
{"Gene":"MED12 (mediator complex subunit 12)","technical replicate":"1","viability, normalised (%)":"46.2 (active)"}
{"Gene":"MED12 (mediator complex subunit 12)","technical replicate":"2","viability, normalised (%)":"48.6 (active)"}
{"Gene":"MED12 (mediator complex subunit 12)","technical replicate":"3","viability, normalised (%)":"40.4 (active)"}
{"Gene":"RBL1 (RB transcriptional corepressor like 1)","technical replicate":"1","viability, normalised (%)":"57.7 (active)"}
{"Gene":"RBL1 (RB transcriptional corepressor like 1)","technical replicate":"2","viability, normalised (%)":"39.8 (active)"}
{"Gene":"RBL1 (RB transcriptional corepressor like 1)","technical replicate":"3","viability, normalised (%)":"41.3 (active)"}
{"Gene":"AK4 (adenylate kinase 4)","technical replicate":"1","viability, normalised (%)":"64.1 (active)"}
{"Gene":"AK4 (adenylate kinase 4)","technical replicate":"2","viability, normalised (%)":"66.5 (active)"}
{"Gene":"AK4 (adenylate kinase 4)","technical replicate":"3","viability, normalised (%)":"68.9 (active)"}
{"Gene":"TDP2 (tyrosyl-DNA phosphodiesterase 2)","technical replicate":"1","viability, normalised (%)":"51.7 (active)"}
{"Gene":"TDP2 (tyrosyl-DNA phosphodiesterase 2)","technical replicate":"1","viability, normalised (%)":"39.1 (active)"}
{"Gene":"TDP2 (tyrosyl-DNA phosphodiesterase 2)","technical replicate":"2","viability, normalised (%)":"46.3 (active)"}
{"Gene":"TDP2 (tyrosyl-DNA phosphodiesterase 2)","technical replicate":"2","viability, normalised (%)":"51.1 (active)"}
{"Gene":"TDP2 (tyrosyl-DNA phosphodiesterase 2)","technical replicate":"3","viability, normalised (%)":"46.9 (active)"}
{"Gene":"TDP2 (tyrosyl-DNA phosphodiesterase 2)","technical replicate":"3","viability, normalised (%)":"40.7 (active)"}

2 entries already listed, ordered by “viability, normalised (%)”, high to low:
{"Gene":"SETMAR (SET and mariner transposase domain methyltransferase)","technical replicate":"2","viability, normalised (%)":"71 (active)"}
{"Gene":"SETMAR (SET and mariner transposase domain methyltransferase)","technical replicate":"2","viability, normalised (%)":"40.4 (active)"}
